Assay results reported in the supplement of paper PMC8728848.
The list shows a part of the results.

Legend:
Assay in all cases: glycan array binding signal (z-score within array); higher = stronger binding
Details in all cases: glycan notation: IUPAC condensed, linker removed; mutation: D224N
Glc(b1-4)Glc = biological target: Glc(b1-4)Glc
How it was run: (§1)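 Columns mapping to the same glycan were averaged after glycan names were converted to IUPAC-condensed notation. The data come from 3228 arrays in the Consortium for Functional Glycomics database, limited to those with an available protein sequence. Binding is reported as a within-array Z-score averaged across arrays of one protein sequence and across linkers.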

Glc(b1-6)Glc = biological target: Glc(b1-6)Glc
How it was run: as §1

GlcA(b1-3)Gal = biological target: GlcA(b1-3)Gal
How it was run: as §1

GlcA(b1-3)GlcNAc = biological target: GlcA(b1-3)GlcNAc
How it was run: as §1

GlcA(b1-6)Gal = biological target: GlcA(b1-6)Gal
How it was run: as §1

[1] = biological target: GlcA3S(b1-3)Gal(b1-4)GlcNAc(b1-2)Man
How it was run: as §1

[2] = biological target: GlcA3S(b1-3)Gal(b1-4)GlcNAc(b1-3)Gal(b1-4)Glc
How it was run: as §1

[3] = biological target: GlcNAc(a1-3)Gal(b1-4)GlcNAc
How it was run: as §1

[4] = biological target: GlcNAc(a1-4)Gal(b1-3)GlcNAc
How it was run: as §1

[5] = biological target: GlcNAc(a1-4)Gal(b1-4)GalNAc
How it was run: as §1

[6] = biological target: GlcNAc(a1-4)Gal(b1-4)GlcNAc
How it was run: as §1

[7] = biological target: GlcNAc(a1-4)Gal(b1-4)GlcNAc(b1-3)Gal(b1-4)Glc
How it was run: as §1

[8] = biological target: GlcNAc(a1-4)Gal(b1-4)GlcNAc(b1-3)Gal(b1-4)GlcNAc
How it was run: as §1

[9] = biological target: GlcNAc(a1-4)Gal(b1-4)GlcNAc(b1-3)Gal(b1-4)GlcNAc(b1-3)Gal(b1-4)GlcNAc
How it was run: as §1

[10] = biological target: GlcNAc(a1-4)Gal(b1-4)GlcNAc(b1-3)Gal(b1-4)[Fuc(a1-3)]GlcNAc(b1-3)Gal(b1-4)[Fuc(a1-3)]GlcNAc
How it was run: as §1

[11] = biological target: GlcNAc(a1-6)Gal(b1-4)GlcNAc
How it was run: as §1

[12] = biological target: GlcNAc(b1-2)Gal(b1-3)GalNAc
How it was run: as §1

[13] = biological target: GlcNAc(b1-2)Man(a1-3)[GlcNAc(b1-2)Man(a1-6)]Man(b1-4)GlcNAc(b1-4)GlcNAc
How it was run: as §1

[14] = biological target: GlcNAc(b1-2)Man(a1-3)[GlcNAc(b1-2)Man(a1-6)]Man(b1-4)GlcNAc(b1-4)[Fuc(a1-6)]GlcNAc
How it was run: as §1

[15] = biological target: GlcNAc(b1-2)Man(a1-3)[GlcNAc(b1-4)][GlcNAc(b1-2)Man(a1-6)]Man(b1-4)GlcNAc(b1-4)GlcNAc
How it was run: as §1

[16] = biological target: GlcNAc(b1-2)Man(a1-3)[GlcNAc(b1-4)][GlcNAc(b1-2)Man(a1-6)]Man(b1-4)GlcNAc(b1-4)[Fuc(a1-6)]GlcNAc
How it was run: as §1

[17] = biological target: GlcNAc(b1-2)[GlcNAc(b1-4)]Man(a1-3)[GlcNAc(b1-2)Man(a1-6)]Man(b1-4)GlcNAc(b1-4)GlcNAc
How it was run: as §1

[18] = biological target: GlcNAc(b1-2)[GlcNAc(b1-4)]Man(a1-3)[GlcNAc(b1-4)][GlcNAc(b1-2)Man(a1-6)]Man(b1-4)GlcNAc(b1-4)GlcNAc
How it was run: as §1

[19] = biological target: GlcNAc(b1-2)[GlcNAc(b1-4)]Man(a1-3)[GlcNAc(b1-4)][GlcNAc(b1-2)[GlcNAc(b1-6)]Man(a1-6)]Man(b1-4)GlcNAc(b1-4)GlcNAc
How it was run: as §1

[20] = biological target: GlcNAc(b1-2)[GlcNAc(b1-4)]Man(a1-3)[GlcNAc(b1-4)][GlcNAc(b1-2)[GlcNAc(b1-6)]Man(a1-6)]Man(b1-4)GlcNAc(b1-4)[Fuc(a1-6)]GlcNAc
How it was run: as §1

[21] = biological target: GlcNAc(b1-2)[GlcNAc(b1-6)]Man(a1-6)[GlcNAc(b1-2)Man(a1-3)]Man(b1-4)GlcNAc(b1-4)GlcNAc
How it was run: as §1

[22] = biological target: GlcNAc(b1-2)[GlcNAc(b1-6)]Man(a1-6)[GlcNAc(b1-2)Man(a1-3)]Man(b1-4)GlcNAc(b1-4)[Fuc(a1-6)]GlcNAc
How it was run: as §1

[23] = biological target: GlcNAc(b1-2)[GlcNAc(b1-6)]Man(a1-6)[GlcNAc(b1-4)][GlcNAc(b1-2)Man(a1-3)]Man(b1-4)GlcNAc(b1-4)GlcNAc
How it was run: as §1

GlcNAc(b1-3)Fuc = biological target: GlcNAc(b1-3)Fuc
How it was run: as §1

GlcNAc(b1-3)Gal = biological target: GlcNAc(b1-3)Gal
How it was run: as §1

[24] = biological target: GlcNAc(b1-3)Gal(b1-3)GalNAc
How it was run: as §1

GlcNAc(b1-3)Gal(b1-4)Glc = biological target: GlcNAc(b1-3)Gal(b1-4)Glc
How it was run: as §1

[25] = biological target: GlcNAc(b1-3)Gal(b1-4)GlcNAc
How it was run: as §1

[26] = biological target: GlcNAc(b1-3)Gal(b1-4)GlcNAc(b1-2)Man(a1-3)[GlcNAc(b1-3)Gal(b1-4)GlcNAc(b1-2)Man(a1-6)]Man(b1-4)GlcNAc(b1-4)GlcNAc
How it was run: as §1

[27] = biological target: GlcNAc(b1-3)Gal(b1-4)GlcNAc(b1-2)Man(a1-3)[GlcNAc(b1-3)Gal(b1-4)GlcNAc(b1-2)Man(a1-6)]Man(b1-4)GlcNAc(b1-4)[Fuc(a1-6)]GlcNAc
How it was run: as §1

[28] = biological target: GlcNAc(b1-3)Gal(b1-4)GlcNAc(b1-2)[GlcNAc(b1-3)Gal(b1-4)GlcNAc(b1-6)]Man(a1-6)[GlcNAc(b1-3)Gal(b1-4)GlcNAc(b1-2)Man(a1-3)]Man(b1-4)GlcNAc(b1-4)GlcNAc
How it was run: as §1

[29] = biological target: GlcNAc(b1-3)Gal(b1-4)GlcNAc(b1-3)Gal(b1-4)GlcNAc
How it was run: as §1

B1: a L Fucosidase (Thermotoga maritima) (protein)
chain: MASMKPRYKPDWESLREHTVPKWFDKAKFGIFIHWGIYSVPGWATPTGELGKVPMDAWFFQNPYAEWYENSLRIKESPTWEYHVKTYGENFEYEKFADLFTAEKWDPQEWADLFKKAGAKYVIPTTKHHDGFCLWGTKYTDFNSVKRGPKRDLVGDLAKAVREAGLRFGVYYSGGLDWRFTTEPIRYPEDLSYIRPNTYEYADYAYKQVMELVDLYLPDVLWNNMGWPEKGKEDLKYLFAYYYNKHPEGSVNDRWGVPHWDFKTAEYHVNYPGDLPGYKWEFTRGIGLSFGYNRNEGPEHMLSVEQLVYTLVDVVSKGGNLLLNVGPKGDGTIPDLQKERLLGLGEWLRKYGDAIYGTSVWERCCAKTEDGTEIRFTRKCNRIFVIFLGIPTGEKIVIEDLNLSAGTVRHFLTGERLSFKNVGKNLEITVPKKLLETDSITLVLEAVEE
- glycan array binding signal (z-score) (Glc(b1-4)Glc): -0.613
- glycan array binding signal (z-score) (Glc(b1-6)Glc): -0.699
- glycan array binding signal (z-score) (GlcA(b1-3)Gal): -0.68
- glycan array binding signal (z-score) (GlcA(b1-3)GlcNAc): 0.573
- glycan array binding signal (z-score) (GlcA(b1-6)Gal): -0.047
- glycan array binding signal (z-score) [1]: -0.236
- glycan array binding signal (z-score) [2]: -0.677
- glycan array binding signal (z-score) [3]: -0.247
- glycan array binding signal (z-score) [4]: -0.713
- glycan array binding signal (z-score) [5]: 0.151
- glycan array binding signal (z-score) [6]: -0.293
- glycan array binding signal (z-score) [7]: -1.1
- glycan array binding signal (z-score) [8]: 0.042
- glycan array binding signal (z-score) [9]: 0.079
- glycan array binding signal (z-score) [10]: 0.08
- glycan array binding signal (z-score) [11]: -0.871
- glycan array binding signal (z-score) [12]: 0.179
- glycan array binding signal (z-score) [13]: -0.295
- glycan array binding signal (z-score) [14]: 0.433
- glycan array binding signal (z-score) [15]: 0.937
- glycan array binding signal (z-score) [16]: 0.291
- glycan array binding signal (z-score) [17]: -0.603
- glycan array binding signal (z-score) [18]: -0.01
- glycan array binding signal (z-score) [19]: -0.084
- glycan array binding signal (z-score) [20]: -0.522
- glycan array binding signal (z-score) [21]: -0.079
- glycan array binding signal (z-score) [22]: -0.472
- glycan array binding signal (z-score) [23]: -0.18
- glycan array binding signal (z-score) (GlcNAc(b1-3)Fuc): -0.333
- glycan array binding signal (z-score) (GlcNAc(b1-3)Gal): -0.908
- glycan array binding signal (z-score) [24]: 0.146
- glycan array binding signal (z-score) (GlcNAc(b1-3)Gal(b1-4)Glc): -0.248
- glycan array binding signal (z-score) [25]: -0.35
- glycan array binding signal (z-score) [26]: 0.512
- glycan array binding signal (z-score) [27]: 1.23
- glycan array binding signal (z-score) [28]: -0.595
- glycan array binding signal (z-score) [29]: -0.67
